Experimental data reported in publication doi:10.1101/2025.07.22.666160.
Where two headings read alike, the source gives them in different places. Results are given in words; binding and its absence hold for the method and conditions named. In cells and extracts the contact can be indirect. Some results given as binding are weak or reduced against the parent protein; the word gives no strength. For some of these results: Where a sequence is shown, tags or fusion partners need not be part of it.

The chains behind the UniProt entries cited, without tags or fusion partners.
UniProt P62136, whole entry: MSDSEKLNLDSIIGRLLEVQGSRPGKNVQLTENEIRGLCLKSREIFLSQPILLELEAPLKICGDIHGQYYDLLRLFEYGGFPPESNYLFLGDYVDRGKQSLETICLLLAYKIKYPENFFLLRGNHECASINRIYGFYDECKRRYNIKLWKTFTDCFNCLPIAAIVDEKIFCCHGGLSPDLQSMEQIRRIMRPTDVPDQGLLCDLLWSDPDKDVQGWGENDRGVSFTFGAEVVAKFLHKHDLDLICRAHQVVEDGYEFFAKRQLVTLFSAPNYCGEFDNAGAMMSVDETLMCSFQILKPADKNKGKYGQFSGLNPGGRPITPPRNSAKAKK

B1: endogenous CERT (ceramide transport protein) (protein, UniProt Q9Y5P4 1-624)
chain: MSDNQSWNSSGSEEDPETESGPPVERCGVLSKWTNYIHGWQDRWVVLKNNALSYYKSEDETEYGCRGSICLSKAVITPHDFDECRFDISVNDSVWYLRAQDPDHRQQWIDAIEQHKTESGYGSESSLRRHGSMVSLVSGASGYSATSTSSFKKGHSLREKLAEMETFRDILCRQVDTLQKYFDACADAVSKDELQRDKVVEDDEDDFPTTRSDGDFLHSTNGNKEKLFPHVTPKGINGIDFKGEAITFKATTAGILATLSHCIELMVKREDSWQKRLDKETEKKRRTEEAYKNAMTELKKKSHFGGPDYEEGPNSLINEEEFFDAVEAALDRQDKIEEQSQSEKVRLHWPTSLPSGDAFSSVGTHRFVQKPYSRSSSMSSIDLVSASDDVHRFSSQVEEMVQNHMTYSLQDVGGDANWQLVVEEGEMKVYRREVEENGIVLDPLKATHAVKGVTGHEVCNYFWNVDVRNDWETTIENFHVVETLADNAIIIYQTHKRVWPASQRDVLYLSVIRKIPALTENDPETWIVCNFSVDHDSAPLNNRCVRAKINVAMICQTLVSPPEGNQEISRDNILCKITYVANVNPGGWAPASVLRAVAKREYPKFLKRFTSYVQEKTAGKPILF

Tests used:
Assay in all cases: co-IP
[1] = target: T1, VZV pORF38-GFP (wild type) (VZV) (UniProt P09289)
T1 sequence: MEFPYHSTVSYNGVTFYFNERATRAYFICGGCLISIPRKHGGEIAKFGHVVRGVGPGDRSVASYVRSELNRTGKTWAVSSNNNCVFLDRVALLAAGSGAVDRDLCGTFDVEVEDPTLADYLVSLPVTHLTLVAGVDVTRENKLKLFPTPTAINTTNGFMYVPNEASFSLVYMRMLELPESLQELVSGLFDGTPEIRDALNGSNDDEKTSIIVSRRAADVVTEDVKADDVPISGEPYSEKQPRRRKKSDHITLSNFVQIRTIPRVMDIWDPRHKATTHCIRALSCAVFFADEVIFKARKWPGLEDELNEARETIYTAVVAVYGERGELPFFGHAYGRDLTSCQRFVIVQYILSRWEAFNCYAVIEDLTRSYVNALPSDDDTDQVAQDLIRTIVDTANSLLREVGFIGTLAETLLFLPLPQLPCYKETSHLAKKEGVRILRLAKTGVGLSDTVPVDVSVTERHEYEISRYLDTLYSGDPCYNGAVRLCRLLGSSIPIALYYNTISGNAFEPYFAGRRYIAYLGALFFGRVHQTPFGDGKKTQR

[2] = target: HSV-1 pUL21-GFP (wild type) (HSV-1) (UniProt F8RG07)
[3] = target: HSV-1 pUL21-GFP (wild type) (HSV-1) (UniProt F8RG07); remark: listed apart in the source

Molecule | binding [1] | binding [2] | binding [3]
endogenous PP1α (from UniProt P62136 1-330) (enzyme) | binds | binds | 
Myc-tagged human PP1α (wild type) (from UniProt P62136 1-330) (enzyme) |  | binds | 
B1 |  |  | binds
